Experiment [1] concerns the target T1, EGFP-WBSCR22 (human) (UniProt O43709).
T1 sequence: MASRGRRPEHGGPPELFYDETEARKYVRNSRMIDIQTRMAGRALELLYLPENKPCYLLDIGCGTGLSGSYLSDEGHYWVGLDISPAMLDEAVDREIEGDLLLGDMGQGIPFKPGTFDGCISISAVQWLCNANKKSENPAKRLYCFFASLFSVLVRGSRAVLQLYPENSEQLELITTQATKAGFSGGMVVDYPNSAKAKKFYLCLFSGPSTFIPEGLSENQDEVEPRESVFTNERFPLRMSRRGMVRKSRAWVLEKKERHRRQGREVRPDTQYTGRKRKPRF
As to the kind of experiment: co-IP; U2OS cells transfected with EGFP fusions, treated with 5 µM MG132 for 16 h; GFP-Trap_M magnetic beads; blot with anti-EGFP and anti-TRMT112.

For experiment [2], the target named is T1, EGFP-WBSCR22 (human). As to the kind of experiment: co-IP; HeLa cells transfected with EGFP fusions, treated with 0 µM or 5 µM MG132 for 16 h; GFP-Trap_M magnetic beads; blot with anti-EGFP, anti-TRMT112 and anti-α-tubulin.

No constants are given. Whether binding was seen depends on the method and setting. Binding seen in cells or lysates may run through a third protein. Some binding calls cover weakened binding; strength is not graded here. Sequences can lack the tags named with a protein.

For the substance “TRMT112 protein (from UniProt Q9UI30 1-125)”, the binding entry in experiment [1] and in experiment [2] was “binds” each time.
